Reference: patent US20210123065

Tested on: Bxb1 integrase (Mycobacteriophage Bxb1)
Assay: activity in cells
Conditions: attL x attR excision with gp47 RDF co-expressed; integrations stable >100 generations without gp47 (p95); protein in cells; only the site is given

Question: With “GGTTTGTCTGGTCAACCACCGCGGTCTCCGTCGTCAGGATCATCG (double strand) [Bxb1 attR junction]” as the sequence, how does the “activity on this sequence” value read?
Answer: active

The exact form of at least one protein or probe is not confirmed.
